Data taken from publication PMC10163288.
Some of the results follow.

B1: il2ra_site1_3nfp_sap_15_mot_HHH_b2_00162_af2_000000036_0001_22_38_H_._HHH_b2_01540_0001_0000300009_0000001_0_0001_af2pred_0001_af2pred (protein)
chain: SSSSSDRTELLRRALELARRGNLEEAKELLEKLAEILEEEGDEEALRKVEADLRLIRKNESSSSS
B2: il2ra_site2_3nfp_normal_mot_HHH_b1_06613_af2_000000098_0001_23_40_H_._HHH_b1_05917_0001_0000100004_0000001_0 (protein)
chain: SSSSSEEEERIEELLEEAKRIEDEEEARRLVSRAAHLAYEIRNHELFAEIADLLFRLIQESSSSS
B3: il2ra_site1_3nfp_sap_8_mot_HHH_b1_06045_af2_000000189_0001_3_17_H_._HHH_b1_03192_0001_0000400017_0000001_0_0001_af2pred_0001_af2pred (protein)
chain: SSSSSDREEVEELLERAEESDDPRERAKLLEEALRIARETRDHETAREIFEVALRLVRGSSSSSS
B4: il2ra_site2_2erj_normal_mot_HHH_b1_06160_000000008_0001_39_56_H_._HHH_b1_00461_af2_0001_0000300014_0000001_0 (protein)
chain: SSSSDEEELRRLIEEARELIEEGNPEEAWRVLSRASELAFELGNFELYSEIAELTHELAKLSSSS
B5: il2ra_site2_3nfp_normal_mot_HHH_b2_03895_000000036_0001_1_18_H_._HHH_b2_03657_0001_0000100001_0000001_0 (protein)
chain: SSSSSDHEAYEKVLKLLKEALQIEDEERVRELLEEAQELAEEARSLVLRRSIEDLREALSSSSSS
B6: il2ra_site1_3nfp_normal_mot_119b7766384adbe86006a62bce89dba1_0001_af2_000000092_0001_18_32_H_._936cac0bedbaeeb6fc45f7bbb6d160e8_0001_0001_0000200021_0000001_0 (protein)
chain: DKAVKLAIRLAQLQDEELAELLEEVVRLLKEEGDPRLLELLDEAMQLIARGNPEEAKRVLEEALK
B7: il2ra_site2_2erj_normal_mot_HHH_b2_07568_000000046_0001_18_34_H_._HHH_b2_01431_af2_0001_0000100005_0000001_0 (protein)
chain: SSSSEEAEKLLEEAKELLKKGNPEEADKVLRRASELAFRLGDFELFSELSELFEEADKLQRSSSS
B8: il2ra_site1_3nfp_sap_16_mot_HHH_b2_00286_000000273_0001_43_57_H_._HHH_b1_07840_0001_0000300031_0000001_0_0001 (protein)
chain: SIEMYVEKAEELDPRLEELLKRALELIQELGDPELARLLIKVVALLELGDPETEKEAEELLREIE
B9: il2ra_site2_2erj_sap_24_mot_HHH_eva_0077_000000062_0001_1_20_H_._HHH_b1_02351_0001_0000400024_0000001_0_0001 (protein)
chain: SSSSDERLRAASLLIEAAALAFRLGDEETAKRLRELFARYARENDPRYAEEAEELEEELNSSSSS
B10: il2ra_site1_3nfp_normal_mot_HHH_b1_01231_af2_000000170_0001_1_16_H_._HHH_b1_05546_af2_0001_0000100003_0000001_0_af2pred_0001_af2pred_1_swapped (protein)
chain: SSSSDEEEAEELFERVREELERLLKEDPQKASRLAREAVRLLLELGNRELAQRLLRFAAKLSSSS
B11: il2ra_site2_3nfp_sap_20_mot_HHH_b1_01080_000000101_0001_40_56_H_._HHH_b1_05979_0001_0001800050_0000001_0_0001 (protein)
chain: SLEELVEEVEEKVPDPLLVAALRYALAAVLLRNDPELRRLLEEAVRLLEEGDPERAAELLAKILH
B12: il2ra_site1_2b5i_normal_mot_f5ff40796168375b462bec8614a1db4a_0001_1_000000138_0001_53_65_H_._HHH_b2_01111_0001_0000200008_0000001_0_af2pred_dldesign_0_af2pred (protein)
chain: SSSSSSDAKEDVEELIELAKKEEDPNLRNRILKMAKQTAERAKNPELVAKVEKVKEELSSSSSSS
B13: il2ra_site2_2erj_normal_mot_6bd1339e93f6fdda22195c76da45ec5d_0001_000000136_0001_37_51_H_._HHH_b2_06260_0001_0000300008_0000001_0_af2pred_0001_1_af2pred_swapped (protein)
chain: SSSSSEDEEEVEELLEQAKEAAKRDPHKAAILLAEAMEIALESQNEELEEAVSKVSQEIWRSSSS
B14: il2ra_site2_2erj_sap_26_mot_720936397f2d31669eff21710c18a4fc_0001_000000071_0001_37_51_H_._HHH_b2_01095_0001_0000200007_0000001_0_0001 (protein)
chain: SSSDLEEEVKRLLEEAEELLKEGNPEEAWRVLREAATIVFRLGNEELFNEVLEALHEIAKRNSSS
B15: il2ra_site1_1z92_sap_14_mot_22370d59370c406a0c205a431f537cfa_0001_000000027_0001_1_14_H_._HHH_b2_04392_0001_0000500006_0000001_0_0001_af2pred_0001_af2pred_1_swa … (protein)
chain: SSSSDEEDRKVIRIVAELYRKFKLSEEQLKELHKLALELLQNGVSEEEIEELLEEQAKRLSSSSS
B16: il2ra_site2_3nfp_sap_23_mot_6ba2120c21ebf0bdaaca7550098e1d96_0001_af2_000000030_0001_16_30_H_._HHH_b1_06076_0001_0000200004_0000001_0_0001 (protein)
chain: SSSSDKEEEIERLLEEVERLLEEGDPTEAVQVLMRASKLAAELGDEELARKVLELFKELQSSSSS
B17: il2ra_site1_1z92_sap_5_mot_HHH_b1_00499_000000182_0001_1_17_H_._HHH_b1_05364_0001_0000100004_0000001_0_0001_af2pred_0001_af2pred (protein)
chain: DVEEELRELAEELGLPPEELEKLLEELQELFDAPPELALEALLRVLKLAGSAETVRRFVERMRRT
B18: il2ra_site1_1z92_sap_23_mot_HHH_b1_07866_af2_000000238_0001_1_18_H_._HHH_b1_03132_0001_0000100002_0000001_0_0001_af2pred_0001_af2pred_1 (protein)
chain: SSSSDREEEIVRRIVEELGLSEELEEHLEKDAEQALRAGVSEKSVELVLRDLAELLERRESSSSS
B19: il2ra_site2_3nfp_normal_mot_HHH_b1_00660_af2_000000090_0001_40_57_H_._HHH_b1_06567_0001_0000600014_0000001_0_af2pred_0001_1_af2pred_swapped (protein)
chain: SSSSDELEERIRELLERVEELIKEGNPEEAERLLREAAKLVLELGDQELFALIYELKELLESSSS

These binders were tested against il2ra, P01589 (assay: yeast display titration).
In the case of B1, the “apparent Kd” value is reported as “inactive: no binding seen”. In the case of B2, the “apparent Kd” value is reported as “inactive: no binding seen”. With B3 the “apparent Kd” value was “inactive: no binding seen”. For B4, the “apparent Kd” value was “inactive: no binding seen”. In the case of B5, the “apparent Kd” value is reported as “inactive: no binding seen”. In the case of B6, the “apparent Kd” value is reported as “inactive: no binding seen”. With B7 the “apparent Kd” value was “inactive: no binding seen”. In the case of B8, the “apparent Kd” value is reported as “inactive: no binding seen”. With B9 the “apparent Kd” value was “inactive: no binding seen”. In the case of B10, the “apparent Kd” value is reported as “inactive: no binding seen”. B11 was tested, and the “apparent Kd” value was “inactive: no binding seen”. B12 was tested, and the “apparent Kd” value was “inactive: no binding seen”. B13 was tested, and the “apparent Kd” value was “inactive: no binding seen”. In the case of B14, the “apparent Kd” value is reported as “inactive: no binding seen”. In the case of B15, the “apparent Kd” value is reported as “inactive: no binding seen”. B16 was tested, and the “apparent Kd” value was “inactive: no binding seen”. In the case of B17, the “apparent Kd” value is reported as “inactive: no binding seen”. In the case of B18, the “apparent Kd” value is reported as “inactive: no binding seen”. For B19, the “apparent Kd” value was “inactive: no binding seen”.
